Reference: PubChem BioAssay AID1053208 (Peter MacCallum Cancer Centre, 2014)

Purpose: 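Find knock-downs that sensitise mouse osteosarcoma cells to doxorubicin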 (primary screen)
Cell system: mouse osteosarcoma cells, early-passage culture from an engineered mouse model of fibroblastic bone tumour
Knock-down reagent: siRNA pool against mouse genes, 40 nM
Time to read-out: about 120 h (48 h before drug, then 72 h with drug)
Conditions: doxorubicin 100 nM for 72 h, roughly 30-40% inhibitory dose
Read-out: 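Viability read as ATP luminescence after 72 h of 100 nM doxorubicin or none, duplicate wells averaged, scaled to non-targeting siRNA, then expressed as robust z-scores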
Direction: viability z-score with doxorubicin: higher = more viable cells under doxorubicin; viability z-score without drug: higher = more viable cells with knock-down alone
Rule for the call: 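a pool counts as active when its viability z-score with doxorubicin is -2 or below and its z-score without drug lies between -2 and 2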
Here is a random part of about 17,000 reagents. Of all reagents, 788 (4.7%) are marked active. 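Calls rest on z-score classes alone; an extra cut-off of viability at most 70% of control was not applied to them.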 Reagents against one gene are numbered here. Further read-outs or replicates are left out here.

Silencing of Ush1g (USH1 protein network component sans) resulted in: combined z-score class no change with or without drug; viability z-score with doxorubicin -0.45; viability z-score without drug 0.51; inactive.
For Capn3 (calpain 3), the entry reads combined z-score class no change with or without drug; viability z-score with doxorubicin 0.56; viability z-score without drug 0.84; inactive.
Rps6 (ribosomal protein S6) showed combined z-score class low cell count with and without drug; viability z-score with doxorubicin -6.74; viability z-score without drug -5.56; inactive.
Knock-down of Npc1 (NPC intracellular cholesterol transporter 1) gave: combined z-score class no change with or without drug; viability z-score with doxorubicin 0.9; viability z-score without drug -0.17; inactive.
Against Aldoart2 (aldolase 1 A, retrogene 2), the values are combined z-score class no change with or without drug; viability z-score with doxorubicin -0.9; viability z-score without drug 0.84; inactive.
Snx24 (sorting nexing 24) showed combined z-score class no change with or without drug; viability z-score with doxorubicin 0.56; viability z-score without drug 0.67; inactive.
For H2-D4 (histocompatibility 2, D region locus 4), the values are combined z-score class no change with or without drug; viability z-score with doxorubicin 0.34; viability z-score without drug 0.67; inactive.
After knock-down of Kcnh7, the record shows combined z-score class no change with or without drug; viability z-score with doxorubicin 0.22; viability z-score without drug -0.51; inactive.
Depletion of Ormdl1 (ORM1-like 1 (S. cerevisiae)) gave: combined z-score class low cell count with doxorubicin only; viability z-score with doxorubicin -2.02; viability z-score without drug -0.51; active.
With knock-down of Pigb (phosphatidylinositol glycan anchor biosynthesis, class B), the record shows combined z-score class no change with or without drug; viability z-score with doxorubicin 0; viability z-score without drug 1.35; inactive.
DOCK8 gave combined z-score class no change with or without drug; viability z-score with doxorubicin 1.69; viability z-score without drug 0.51; inactive.
Silencing of H4c8 (H4 clustered histone 8) came out at: combined z-score class no change with or without drug; viability z-score with doxorubicin 1.12; viability z-score without drug 1.01; inactive.
Depletion of Prodh2 (proline dehydrogenase (oxidase) 2) resulted in: combined z-score class no change with or without drug; viability z-score with doxorubicin 0.56; viability z-score without drug -0.51; inactive.
Depletion of Mboat2 (membrane bound O-acyltransferase domain containing 2) resulted in: combined z-score class no change with or without drug; viability z-score with doxorubicin 0; viability z-score without drug -0.51; inactive.
Uxt (ubiquitously expressed prefoldin like chaperone) showed combined z-score class no change with or without drug; viability z-score with doxorubicin -0.67; viability z-score without drug -0.84; inactive.

Sorted by “viability z-score with doxorubicin” (high to low): some entries from above
Pigb (phosphatidylinositol glycan anchor biosynthesis, class B) → combined z-score class: no change with or without drug; viability z-score with doxorubicin: 0; viability z-score without drug: 1.35; activity call: inactive
Ormdl1 (ORM1-like 1 (S. cerevisiae)) → combined z-score class: low cell count with doxorubicin only; viability z-score with doxorubicin: -2.02; viability z-score without drug: -0.51; activity call: active

The results go on.
Knock-down of Zfp169 (zinc finger protein 169) gave: combined z-score class no change with or without drug; viability z-score with doxorubicin 1.01; viability z-score without drug 0.67; inactive.
For Fn3krp (fructosamine 3 kinase related protein) the deposit lists combined z-score class no change with or without drug; viability z-score with doxorubicin 0; viability z-score without drug -0.67; inactive.
Against Mettl14 (methyltransferase 14, N6-adenosine-methyltransferase subunit) the deposit lists combined z-score class no change with or without drug; viability z-score with doxorubicin 0.34; viability z-score without drug 0.84; inactive.
With knock-down of Vmn2r129 (vomeronasal 2, receptor 129) #1, the record shows combined z-score class low cell count with doxorubicin only; viability z-score with doxorubicin -2.47; viability z-score without drug 0.34; active.
For Vmn2r129 (vomeronasal 2, receptor 129) #2 the deposit lists combined z-score class high cell count without drug only; viability z-score with doxorubicin 1.91; viability z-score without drug 3.04; inactive.
For Oxct1 (3-oxoacid CoA transferase 1) the deposit lists combined z-score class no change with or without drug; viability z-score with doxorubicin -0.22; viability z-score without drug -0.84; inactive.
For Cpa3 (carboxypeptidase A3, mast cell), the values are combined z-score class no change with or without drug; viability z-score with doxorubicin 1.8; viability z-score without drug 0.17; inactive.
For Tgfa (transforming growth factor alpha) the deposit lists combined z-score class no change with or without drug; viability z-score with doxorubicin -0.79; viability z-score without drug -1.18; inactive.
Silencing of Zbtb20 (zinc finger and BTB domain containing 20) gave: combined z-score class no change with or without drug; viability z-score with doxorubicin 0.79; viability z-score without drug 0.67; inactive.
With knock-down of Magohb (mago homolog B, exon junction complex core component) the results were combined z-score class no change with or without drug; viability z-score with doxorubicin 0.45; viability z-score without drug 0.17; inactive.
For 1810055G02Rik (RIKEN cDNA 1810055G02 gene), the values are combined z-score class high cell count without drug only; viability z-score with doxorubicin 1.46; viability z-score without drug 2.02; inactive.
Pura (purine rich element binding protein A) gave combined z-score class no change with or without drug; viability z-score with doxorubicin -1.35; viability z-score without drug 0.34; inactive.
Silencing of Mylip (myosin regulatory light chain interacting protein) came out at: combined z-score class no change with or without drug; viability z-score with doxorubicin -0.9; viability z-score without drug -1.01; inactive.
